Data: doi:10.1101/592923
Results are given in words; binding and its absence hold for the method and conditions named. In cells and extracts the contact can be indirect. Some results given as binding are weak or reduced against the parent protein; the word gives no strength.

Amino acid sequences for entries named in this document (tags omitted).
UniProt Q00416: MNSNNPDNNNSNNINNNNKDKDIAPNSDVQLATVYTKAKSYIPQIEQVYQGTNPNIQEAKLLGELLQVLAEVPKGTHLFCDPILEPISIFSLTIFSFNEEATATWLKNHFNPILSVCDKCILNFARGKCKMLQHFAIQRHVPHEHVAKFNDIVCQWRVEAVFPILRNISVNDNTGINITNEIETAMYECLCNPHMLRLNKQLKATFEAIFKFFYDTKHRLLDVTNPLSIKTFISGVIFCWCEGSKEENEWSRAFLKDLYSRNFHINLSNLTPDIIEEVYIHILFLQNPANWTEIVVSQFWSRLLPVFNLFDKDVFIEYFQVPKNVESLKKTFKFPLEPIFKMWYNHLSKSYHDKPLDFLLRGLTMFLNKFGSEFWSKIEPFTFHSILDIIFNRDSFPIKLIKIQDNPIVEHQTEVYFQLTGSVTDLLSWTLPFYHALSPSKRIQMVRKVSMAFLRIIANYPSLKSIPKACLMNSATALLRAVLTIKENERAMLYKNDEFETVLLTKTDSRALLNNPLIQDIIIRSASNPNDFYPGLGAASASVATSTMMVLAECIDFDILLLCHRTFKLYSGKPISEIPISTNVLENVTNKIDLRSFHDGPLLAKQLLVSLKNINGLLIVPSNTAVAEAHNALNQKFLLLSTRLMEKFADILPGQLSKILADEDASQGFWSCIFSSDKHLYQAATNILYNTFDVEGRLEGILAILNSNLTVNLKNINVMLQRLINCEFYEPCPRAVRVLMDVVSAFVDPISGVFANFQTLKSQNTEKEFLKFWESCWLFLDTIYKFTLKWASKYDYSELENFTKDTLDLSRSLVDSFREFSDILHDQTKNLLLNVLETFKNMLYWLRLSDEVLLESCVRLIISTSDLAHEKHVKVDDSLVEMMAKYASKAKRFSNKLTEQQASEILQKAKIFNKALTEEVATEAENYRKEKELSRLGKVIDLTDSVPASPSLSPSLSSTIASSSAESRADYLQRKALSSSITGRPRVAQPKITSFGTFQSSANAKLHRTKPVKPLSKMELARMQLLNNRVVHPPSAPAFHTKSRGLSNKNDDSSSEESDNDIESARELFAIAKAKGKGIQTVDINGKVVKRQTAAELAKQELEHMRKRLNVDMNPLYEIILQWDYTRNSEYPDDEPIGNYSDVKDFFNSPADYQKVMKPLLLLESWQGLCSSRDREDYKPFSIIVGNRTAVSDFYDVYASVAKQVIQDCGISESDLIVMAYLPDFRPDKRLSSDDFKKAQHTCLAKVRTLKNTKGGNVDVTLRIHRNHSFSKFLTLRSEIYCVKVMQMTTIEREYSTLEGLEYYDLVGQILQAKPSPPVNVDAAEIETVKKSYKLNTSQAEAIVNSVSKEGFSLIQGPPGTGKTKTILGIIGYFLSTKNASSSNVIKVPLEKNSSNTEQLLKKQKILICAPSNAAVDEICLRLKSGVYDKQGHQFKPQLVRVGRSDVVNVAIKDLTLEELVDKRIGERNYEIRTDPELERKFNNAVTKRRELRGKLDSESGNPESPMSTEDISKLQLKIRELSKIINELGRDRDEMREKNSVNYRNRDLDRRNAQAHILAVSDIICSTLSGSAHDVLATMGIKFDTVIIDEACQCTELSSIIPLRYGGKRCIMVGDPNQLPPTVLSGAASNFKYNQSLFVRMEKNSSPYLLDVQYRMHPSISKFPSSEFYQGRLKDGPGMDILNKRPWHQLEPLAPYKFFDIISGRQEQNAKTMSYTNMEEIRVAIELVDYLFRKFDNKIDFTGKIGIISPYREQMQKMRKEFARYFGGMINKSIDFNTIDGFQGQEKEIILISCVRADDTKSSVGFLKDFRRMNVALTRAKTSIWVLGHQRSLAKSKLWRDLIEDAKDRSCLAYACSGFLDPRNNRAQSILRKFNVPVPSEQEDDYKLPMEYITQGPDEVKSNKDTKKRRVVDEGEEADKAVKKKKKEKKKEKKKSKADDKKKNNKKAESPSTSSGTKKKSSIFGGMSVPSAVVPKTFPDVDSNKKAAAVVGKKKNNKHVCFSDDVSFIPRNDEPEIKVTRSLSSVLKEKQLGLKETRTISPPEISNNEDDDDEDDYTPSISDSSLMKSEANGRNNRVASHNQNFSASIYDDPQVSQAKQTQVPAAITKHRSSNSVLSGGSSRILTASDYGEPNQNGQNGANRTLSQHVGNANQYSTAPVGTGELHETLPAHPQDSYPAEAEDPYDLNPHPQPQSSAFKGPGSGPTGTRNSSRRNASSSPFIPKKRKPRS

T1: Nrd1 (S. cerevisiae (endogenous in yeast cells)) (UniProt P53617)
T1 sequence: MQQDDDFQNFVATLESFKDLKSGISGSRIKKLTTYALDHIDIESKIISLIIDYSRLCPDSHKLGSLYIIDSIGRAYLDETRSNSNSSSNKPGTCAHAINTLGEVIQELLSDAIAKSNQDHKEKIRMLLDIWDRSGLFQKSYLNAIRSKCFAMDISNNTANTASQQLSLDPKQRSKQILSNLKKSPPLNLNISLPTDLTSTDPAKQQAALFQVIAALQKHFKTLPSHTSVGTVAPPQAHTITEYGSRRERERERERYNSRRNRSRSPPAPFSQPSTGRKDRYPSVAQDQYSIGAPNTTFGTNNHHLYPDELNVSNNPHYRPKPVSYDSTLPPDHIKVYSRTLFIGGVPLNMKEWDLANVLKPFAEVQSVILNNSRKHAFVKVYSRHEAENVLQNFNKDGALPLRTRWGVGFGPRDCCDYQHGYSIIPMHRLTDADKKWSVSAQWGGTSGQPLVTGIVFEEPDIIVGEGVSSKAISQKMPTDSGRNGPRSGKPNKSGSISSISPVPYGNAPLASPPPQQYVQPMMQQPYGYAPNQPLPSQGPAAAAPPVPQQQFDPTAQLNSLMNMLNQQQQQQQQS

T2: Nab3 (wildtype) (S. cerevisiae) (UniProt P38996)
T2 sequence: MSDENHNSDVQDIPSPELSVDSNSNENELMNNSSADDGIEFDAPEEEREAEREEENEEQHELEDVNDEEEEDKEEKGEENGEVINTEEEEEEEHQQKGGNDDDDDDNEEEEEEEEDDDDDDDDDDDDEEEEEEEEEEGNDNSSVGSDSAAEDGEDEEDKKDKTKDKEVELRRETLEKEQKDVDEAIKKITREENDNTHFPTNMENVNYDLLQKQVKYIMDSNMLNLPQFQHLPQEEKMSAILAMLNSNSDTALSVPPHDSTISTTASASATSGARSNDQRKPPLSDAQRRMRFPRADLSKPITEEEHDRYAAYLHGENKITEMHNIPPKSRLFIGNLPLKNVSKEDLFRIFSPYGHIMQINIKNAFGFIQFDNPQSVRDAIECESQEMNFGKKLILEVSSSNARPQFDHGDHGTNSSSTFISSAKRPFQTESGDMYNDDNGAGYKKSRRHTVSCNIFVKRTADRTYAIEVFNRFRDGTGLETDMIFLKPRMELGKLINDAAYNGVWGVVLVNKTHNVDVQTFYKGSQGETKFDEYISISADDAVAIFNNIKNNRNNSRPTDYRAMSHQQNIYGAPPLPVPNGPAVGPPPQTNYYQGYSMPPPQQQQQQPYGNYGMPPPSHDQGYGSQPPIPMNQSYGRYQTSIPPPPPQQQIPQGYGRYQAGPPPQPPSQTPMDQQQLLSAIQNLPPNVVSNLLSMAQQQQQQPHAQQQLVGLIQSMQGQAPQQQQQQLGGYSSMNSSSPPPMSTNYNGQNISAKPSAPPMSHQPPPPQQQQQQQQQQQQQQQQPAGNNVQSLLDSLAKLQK

T3: Nab3-K363R (S. cerevisiae) (UniProt P38996)
T3 sequence: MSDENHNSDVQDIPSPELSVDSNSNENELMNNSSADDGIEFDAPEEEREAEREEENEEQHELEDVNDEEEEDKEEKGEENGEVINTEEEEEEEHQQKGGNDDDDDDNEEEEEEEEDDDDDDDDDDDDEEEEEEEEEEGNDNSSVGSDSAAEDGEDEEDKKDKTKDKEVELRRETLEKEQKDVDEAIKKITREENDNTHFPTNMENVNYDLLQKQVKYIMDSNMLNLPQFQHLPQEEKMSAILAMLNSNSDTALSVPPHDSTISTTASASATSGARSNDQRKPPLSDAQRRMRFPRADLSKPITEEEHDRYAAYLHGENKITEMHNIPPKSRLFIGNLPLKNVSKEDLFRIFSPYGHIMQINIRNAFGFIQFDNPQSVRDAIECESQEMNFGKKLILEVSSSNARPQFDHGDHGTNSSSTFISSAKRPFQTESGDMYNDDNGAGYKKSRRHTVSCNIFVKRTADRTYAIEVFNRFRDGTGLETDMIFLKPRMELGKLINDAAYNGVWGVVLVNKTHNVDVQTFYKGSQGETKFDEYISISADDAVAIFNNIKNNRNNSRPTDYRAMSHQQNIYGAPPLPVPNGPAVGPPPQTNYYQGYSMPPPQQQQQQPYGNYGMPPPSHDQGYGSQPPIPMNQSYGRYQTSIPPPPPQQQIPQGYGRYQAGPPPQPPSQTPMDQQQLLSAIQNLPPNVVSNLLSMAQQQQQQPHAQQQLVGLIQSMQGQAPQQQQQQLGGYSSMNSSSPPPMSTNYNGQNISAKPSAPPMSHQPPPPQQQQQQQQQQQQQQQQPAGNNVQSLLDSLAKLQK


Experiments:
Assay in all cases: co-IP
[1] = target: T1, Nrd1 (S. cerevisiae (endogenous in yeast cells))
[2] = target: T2, Nab3 (wildtype) (S. cerevisiae)
[3] = target: T3, Nab3-K363R (S. cerevisiae)

binding [1] | binding [2] | binding [3] | Molecule
binds |  |  | Sen1 (from UniProt Q00416 1-2231)
 | binds | binds | Nrd1 (protein, UniProt P53617 1-575) MQQDDDFQNFVATLESFKDLKSGISGSRIKKLTTYALDHIDIESKIISLIIDYSRLCPDSHKLGSLYIIDSIGRAYLDETRSNSNSSSNKPGTCAHAINTLGEVIQELLSDAIAKSNQDHKEKIRMLLDIWDRSGLFQKSYLNAIRSKCFAMDISNNTANTASQQLSLDPKQRSKQILSNLKKSPPLNLNISLPTDLTSTDPAKQQAALFQVIAALQKHFKTLPSHTSVGTVAPPQAHTITEYGSRRERERERERYNSRRNRSRSPPAPFSQPSTGRKDRYPSVAQDQYSIGAPNTTFGTNNHHLYPDELNVSNNPHYRPKPVSYDSTLPPDHIKVYSRTLFIGGVPLNMKEWDLANVLKPFAEVQSVILNNSRKHAFVKVYSRHEAENVLQNFNKDGALPLRTRWGVGFGPRDCCDYQHGYSIIPMHRLTDADKKWSVSAQWGGTSGQPLVTGIVFEEPDIIVGEGVSSKAISQKMPTDSGRNGPRSGKPNKSGSISSISPVPYGNAPLASPPPQQYVQPMMQQPYGYAPNQPLPSQGPAAAAPPVPQQQFDPTAQLNSLMNMLNQQQQQQQQS
binds |  |  | Nab3 (wildtype) (protein, UniProt P38996 1-802) MSDENHNSDVQDIPSPELSVDSNSNENELMNNSSADDGIEFDAPEEEREAEREEENEEQHELEDVNDEEEEDKEEKGEENGEVINTEEEEEEEHQQKGGNDDDDDDNEEEEEEEEDDDDDDDDDDDDEEEEEEEEEEGNDNSSVGSDSAAEDGEDEEDKKDKTKDKEVELRRETLEKEQKDVDEAIKKITREENDNTHFPTNMENVNYDLLQKQVKYIMDSNMLNLPQFQHLPQEEKMSAILAMLNSNSDTALSVPPHDSTISTTASASATSGARSNDQRKPPLSDAQRRMRFPRADLSKPITEEEHDRYAAYLHGENKITEMHNIPPKSRLFIGNLPLKNVSKEDLFRIFSPYGHIMQINIKNAFGFIQFDNPQSVRDAIECESQEMNFGKKLILEVSSSNARPQFDHGDHGTNSSSTFISSAKRPFQTESGDMYNDDNGAGYKKSRRHTVSCNIFVKRTADRTYAIEVFNRFRDGTGLETDMIFLKPRMELGKLINDAAYNGVWGVVLVNKTHNVDVQTFYKGSQGETKFDEYISISADDAVAIFNNIKNNRNNSRPTDYRAMSHQQNIYGAPPLPVPNGPAVGPPPQTNYYQGYSMPPPQQQQQQPYGNYGMPPPSHDQGYGSQPPIPMNQSYGRYQTSIPPPPPQQQIPQGYGRYQAGPPPQPPSQTPMDQQQLLSAIQNLPPNVVSNLLSMAQQQQQQPHAQQQLVGLIQSMQGQAPQQQQQQLGGYSSMNSSSPPPMSTNYNGQNISAKPSAPPMSHQPPPPQQQQQQQQQQQQQQQQPAGNNVQSLLDSLAKLQK
binds |  |  | Nab3-K363R (protein, UniProt P38996 1-802) MSDENHNSDVQDIPSPELSVDSNSNENELMNNSSADDGIEFDAPEEEREAEREEENEEQHELEDVNDEEEEDKEEKGEENGEVINTEEEEEEEHQQKGGNDDDDDDNEEEEEEEEDDDDDDDDDDDDEEEEEEEEEEGNDNSSVGSDSAAEDGEDEEDKKDKTKDKEVELRRETLEKEQKDVDEAIKKITREENDNTHFPTNMENVNYDLLQKQVKYIMDSNMLNLPQFQHLPQEEKMSAILAMLNSNSDTALSVPPHDSTISTTASASATSGARSNDQRKPPLSDAQRRMRFPRADLSKPITEEEHDRYAAYLHGENKITEMHNIPPKSRLFIGNLPLKNVSKEDLFRIFSPYGHIMQINIRNAFGFIQFDNPQSVRDAIECESQEMNFGKKLILEVSSSNARPQFDHGDHGTNSSSTFISSAKRPFQTESGDMYNDDNGAGYKKSRRHTVSCNIFVKRTADRTYAIEVFNRFRDGTGLETDMIFLKPRMELGKLINDAAYNGVWGVVLVNKTHNVDVQTFYKGSQGETKFDEYISISADDAVAIFNNIKNNRNNSRPTDYRAMSHQQNIYGAPPLPVPNGPAVGPPPQTNYYQGYSMPPPQQQQQQPYGNYGMPPPSHDQGYGSQPPIPMNQSYGRYQTSIPPPPPQQQIPQGYGRYQAGPPPQPPSQTPMDQQQLLSAIQNLPPNVVSNLLSMAQQQQQQPHAQQQLVGLIQSMQGQAPQQQQQQLGGYSSMNSSSPPPMSTNYNGQNISAKPSAPPMSHQPPPPQQQQQQQQQQQQQQQQPAGNNVQSLLDSLAKLQK
